This is one part of the list. The calls rarely recur for the same compound in another form.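 In K562 cells expressing nanoluciferase-fused kinases, luminescence was recorded at 4 h intervals between 2 and 18 h, normalized as percent of control with DMSO at 100% and a positive control at 0%. A significant (2 sigma) signal drop marks a time point as decreased. The authors' rule for a hit is not shown and takes in more than the number of time points.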
What was measured:
Experiment in all cases: kinase-Nluc reporter destabilization hit call (1 = scored as downregulated) (binary); higher = compound decreases kinase abundance
Conditions in all cases: K562; 2-18 h
[1] = molecular target: RET (UniProt P07949)
[2] = molecular target: RET_M918T (clone: RET_mut) (UniProt P07949)
[3] = molecular target: RIOK1 (UniProt Q9BRS2)
[4] = molecular target: RIPK1 (UniProt Q13546)
[5] = molecular target: RIPK2 (UniProt O43353)
[6] = molecular target: ROR2 (UniProt Q01974)
[7] = molecular target: RPS6KA1 (UniProt Q15418)
[8] = molecular target: SPHK1 (UniProt Q9NYA1)
[9] = molecular target: SRC (UniProt P12931)
[10] = molecular target: STK24 (UniProt Q9Y6E0)

Protein sequences, listed by entry. Tags and fused reporters are not part of them. Lines headed by an entry give the natural chain unless they say otherwise; changes in a name come on top.
UniProt P07949, whole entry, looked up: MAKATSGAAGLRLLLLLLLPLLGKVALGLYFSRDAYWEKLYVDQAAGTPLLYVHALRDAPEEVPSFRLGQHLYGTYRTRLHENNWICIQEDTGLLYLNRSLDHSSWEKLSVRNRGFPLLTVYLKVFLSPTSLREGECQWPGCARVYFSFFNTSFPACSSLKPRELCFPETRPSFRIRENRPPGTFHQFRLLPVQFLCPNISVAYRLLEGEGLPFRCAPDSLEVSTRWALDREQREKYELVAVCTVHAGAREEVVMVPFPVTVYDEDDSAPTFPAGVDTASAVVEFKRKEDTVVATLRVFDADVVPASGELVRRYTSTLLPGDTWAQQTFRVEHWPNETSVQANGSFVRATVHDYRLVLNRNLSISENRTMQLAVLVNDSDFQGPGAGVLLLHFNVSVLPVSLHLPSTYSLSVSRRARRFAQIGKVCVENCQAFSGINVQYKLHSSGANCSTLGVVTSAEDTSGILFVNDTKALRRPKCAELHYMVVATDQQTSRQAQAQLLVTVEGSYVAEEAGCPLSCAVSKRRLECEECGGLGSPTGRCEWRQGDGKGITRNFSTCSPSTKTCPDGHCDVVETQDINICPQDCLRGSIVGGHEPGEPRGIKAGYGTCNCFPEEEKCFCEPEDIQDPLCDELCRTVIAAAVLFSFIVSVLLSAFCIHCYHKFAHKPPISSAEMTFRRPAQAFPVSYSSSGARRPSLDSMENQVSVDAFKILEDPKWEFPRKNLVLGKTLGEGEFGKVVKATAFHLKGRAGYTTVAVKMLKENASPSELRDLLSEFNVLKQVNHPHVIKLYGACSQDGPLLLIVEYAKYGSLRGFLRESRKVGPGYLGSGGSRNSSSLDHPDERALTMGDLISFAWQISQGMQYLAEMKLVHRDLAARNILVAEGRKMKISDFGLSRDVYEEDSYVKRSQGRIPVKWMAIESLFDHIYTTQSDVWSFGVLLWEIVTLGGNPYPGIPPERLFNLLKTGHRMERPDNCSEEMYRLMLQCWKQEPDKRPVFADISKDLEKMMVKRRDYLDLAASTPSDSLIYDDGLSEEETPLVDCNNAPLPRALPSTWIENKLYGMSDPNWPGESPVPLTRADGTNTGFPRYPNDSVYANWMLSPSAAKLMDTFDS
UniProt P07949, whole entry M918T, looked up: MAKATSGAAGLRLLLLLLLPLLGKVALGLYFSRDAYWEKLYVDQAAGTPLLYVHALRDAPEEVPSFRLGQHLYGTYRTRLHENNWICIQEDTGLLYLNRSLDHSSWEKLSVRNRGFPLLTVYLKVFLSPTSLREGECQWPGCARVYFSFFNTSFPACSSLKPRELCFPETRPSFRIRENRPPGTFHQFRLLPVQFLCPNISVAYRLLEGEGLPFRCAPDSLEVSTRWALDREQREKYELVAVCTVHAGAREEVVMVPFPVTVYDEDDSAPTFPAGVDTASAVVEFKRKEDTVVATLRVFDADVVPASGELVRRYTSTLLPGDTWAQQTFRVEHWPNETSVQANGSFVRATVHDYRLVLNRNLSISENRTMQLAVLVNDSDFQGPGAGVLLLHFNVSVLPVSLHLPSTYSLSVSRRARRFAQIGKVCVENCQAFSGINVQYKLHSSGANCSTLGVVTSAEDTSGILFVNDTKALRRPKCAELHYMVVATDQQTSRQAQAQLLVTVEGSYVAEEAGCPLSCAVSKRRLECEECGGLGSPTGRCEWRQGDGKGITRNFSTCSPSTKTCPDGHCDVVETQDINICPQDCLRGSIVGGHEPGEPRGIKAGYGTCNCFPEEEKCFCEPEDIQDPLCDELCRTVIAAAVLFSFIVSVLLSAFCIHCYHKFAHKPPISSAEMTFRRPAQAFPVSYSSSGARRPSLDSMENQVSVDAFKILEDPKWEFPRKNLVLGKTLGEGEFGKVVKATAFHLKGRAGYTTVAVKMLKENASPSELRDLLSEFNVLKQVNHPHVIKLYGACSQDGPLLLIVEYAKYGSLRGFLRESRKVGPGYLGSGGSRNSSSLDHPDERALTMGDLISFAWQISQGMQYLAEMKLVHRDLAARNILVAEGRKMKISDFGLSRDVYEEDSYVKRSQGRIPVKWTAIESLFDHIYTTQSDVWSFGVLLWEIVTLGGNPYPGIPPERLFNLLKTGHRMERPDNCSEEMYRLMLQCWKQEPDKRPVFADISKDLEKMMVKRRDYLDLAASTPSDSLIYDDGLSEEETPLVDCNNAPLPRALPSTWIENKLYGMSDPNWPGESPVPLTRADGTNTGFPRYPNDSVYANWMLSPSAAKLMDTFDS
UniProt Q9BRS2: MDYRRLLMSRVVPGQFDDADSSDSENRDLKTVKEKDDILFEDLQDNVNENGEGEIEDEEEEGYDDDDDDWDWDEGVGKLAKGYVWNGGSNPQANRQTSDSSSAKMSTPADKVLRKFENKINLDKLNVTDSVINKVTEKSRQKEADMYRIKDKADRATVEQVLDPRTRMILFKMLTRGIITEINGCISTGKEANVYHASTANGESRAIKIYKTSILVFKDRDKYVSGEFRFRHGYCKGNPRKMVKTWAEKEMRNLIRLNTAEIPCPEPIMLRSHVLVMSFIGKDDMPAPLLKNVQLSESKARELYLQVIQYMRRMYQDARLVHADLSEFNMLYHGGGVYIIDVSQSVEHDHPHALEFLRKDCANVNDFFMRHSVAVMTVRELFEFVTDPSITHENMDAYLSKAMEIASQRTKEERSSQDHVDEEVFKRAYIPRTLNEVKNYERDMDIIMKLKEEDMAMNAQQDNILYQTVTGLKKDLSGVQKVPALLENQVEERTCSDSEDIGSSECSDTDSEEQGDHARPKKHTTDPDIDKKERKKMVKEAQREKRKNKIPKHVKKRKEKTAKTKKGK
UniProt Q13546: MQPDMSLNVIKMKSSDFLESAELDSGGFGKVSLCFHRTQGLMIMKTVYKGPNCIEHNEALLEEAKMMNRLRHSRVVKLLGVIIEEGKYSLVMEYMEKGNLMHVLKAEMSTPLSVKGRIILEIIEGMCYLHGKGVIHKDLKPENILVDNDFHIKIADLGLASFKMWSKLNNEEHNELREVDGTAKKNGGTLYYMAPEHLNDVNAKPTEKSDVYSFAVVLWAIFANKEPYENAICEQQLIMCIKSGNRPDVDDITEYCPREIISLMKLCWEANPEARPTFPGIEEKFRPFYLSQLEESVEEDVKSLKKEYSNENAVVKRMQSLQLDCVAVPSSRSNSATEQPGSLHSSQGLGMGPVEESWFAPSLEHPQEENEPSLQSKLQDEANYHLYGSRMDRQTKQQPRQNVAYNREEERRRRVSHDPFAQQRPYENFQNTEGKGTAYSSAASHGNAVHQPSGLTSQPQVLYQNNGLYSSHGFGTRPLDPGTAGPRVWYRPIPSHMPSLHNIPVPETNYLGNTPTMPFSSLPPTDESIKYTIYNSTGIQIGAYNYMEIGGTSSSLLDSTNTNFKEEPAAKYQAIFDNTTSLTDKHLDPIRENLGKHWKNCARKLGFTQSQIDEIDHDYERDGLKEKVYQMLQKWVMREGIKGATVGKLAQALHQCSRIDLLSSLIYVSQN
UniProt Q01974, whole entry: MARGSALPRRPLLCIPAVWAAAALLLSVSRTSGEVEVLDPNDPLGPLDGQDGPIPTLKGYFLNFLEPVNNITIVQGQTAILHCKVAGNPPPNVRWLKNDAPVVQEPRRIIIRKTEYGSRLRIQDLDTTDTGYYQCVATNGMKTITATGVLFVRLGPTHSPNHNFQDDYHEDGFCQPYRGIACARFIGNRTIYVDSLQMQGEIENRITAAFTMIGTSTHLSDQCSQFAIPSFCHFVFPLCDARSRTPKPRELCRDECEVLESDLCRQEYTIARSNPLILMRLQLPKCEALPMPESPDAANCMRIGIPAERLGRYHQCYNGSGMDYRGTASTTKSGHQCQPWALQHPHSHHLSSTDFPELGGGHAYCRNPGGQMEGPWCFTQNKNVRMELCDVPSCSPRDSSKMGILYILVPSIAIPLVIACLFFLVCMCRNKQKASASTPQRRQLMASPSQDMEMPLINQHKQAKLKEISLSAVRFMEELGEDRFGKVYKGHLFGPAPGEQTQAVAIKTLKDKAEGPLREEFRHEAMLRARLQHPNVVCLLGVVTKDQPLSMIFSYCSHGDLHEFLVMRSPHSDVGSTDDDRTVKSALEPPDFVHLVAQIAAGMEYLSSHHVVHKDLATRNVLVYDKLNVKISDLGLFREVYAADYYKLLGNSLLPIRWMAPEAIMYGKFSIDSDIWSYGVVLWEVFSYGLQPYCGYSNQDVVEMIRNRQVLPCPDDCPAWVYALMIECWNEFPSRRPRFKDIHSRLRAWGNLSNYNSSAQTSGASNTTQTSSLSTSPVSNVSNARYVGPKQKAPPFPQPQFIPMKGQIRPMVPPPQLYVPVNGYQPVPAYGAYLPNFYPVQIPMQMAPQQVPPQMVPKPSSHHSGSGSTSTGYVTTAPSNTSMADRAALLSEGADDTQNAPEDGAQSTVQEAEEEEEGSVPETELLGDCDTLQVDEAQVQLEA
UniProt Q15418, whole entry: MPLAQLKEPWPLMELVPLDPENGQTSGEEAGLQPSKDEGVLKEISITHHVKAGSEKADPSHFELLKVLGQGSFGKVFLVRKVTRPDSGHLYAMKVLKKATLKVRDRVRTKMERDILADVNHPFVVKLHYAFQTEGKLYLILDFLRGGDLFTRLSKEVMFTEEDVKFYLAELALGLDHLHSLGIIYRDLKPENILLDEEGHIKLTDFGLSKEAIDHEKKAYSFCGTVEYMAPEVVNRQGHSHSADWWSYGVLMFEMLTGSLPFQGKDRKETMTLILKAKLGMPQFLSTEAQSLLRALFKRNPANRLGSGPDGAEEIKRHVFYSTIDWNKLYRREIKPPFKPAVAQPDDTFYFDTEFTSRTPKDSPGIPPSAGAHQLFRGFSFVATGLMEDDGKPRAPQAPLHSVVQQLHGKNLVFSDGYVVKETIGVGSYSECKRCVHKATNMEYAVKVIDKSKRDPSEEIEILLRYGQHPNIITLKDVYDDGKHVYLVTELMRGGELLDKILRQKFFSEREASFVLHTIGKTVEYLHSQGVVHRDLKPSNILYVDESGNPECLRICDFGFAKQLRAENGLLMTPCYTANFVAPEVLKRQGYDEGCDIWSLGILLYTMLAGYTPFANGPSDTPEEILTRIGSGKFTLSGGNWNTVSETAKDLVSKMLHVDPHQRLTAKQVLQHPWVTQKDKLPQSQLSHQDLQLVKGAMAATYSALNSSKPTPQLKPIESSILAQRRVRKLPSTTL
UniProt Q9NYA1, whole entry: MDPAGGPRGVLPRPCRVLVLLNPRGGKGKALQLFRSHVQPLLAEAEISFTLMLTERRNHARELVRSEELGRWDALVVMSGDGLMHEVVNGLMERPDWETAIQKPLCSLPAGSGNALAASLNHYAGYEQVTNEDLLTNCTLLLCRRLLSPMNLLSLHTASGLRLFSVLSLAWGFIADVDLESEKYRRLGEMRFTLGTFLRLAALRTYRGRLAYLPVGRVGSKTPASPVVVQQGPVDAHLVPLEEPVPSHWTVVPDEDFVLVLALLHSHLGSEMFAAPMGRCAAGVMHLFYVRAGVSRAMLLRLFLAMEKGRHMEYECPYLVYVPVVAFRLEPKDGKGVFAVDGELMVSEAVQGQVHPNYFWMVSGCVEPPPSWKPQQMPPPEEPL
UniProt Q9Y6E0: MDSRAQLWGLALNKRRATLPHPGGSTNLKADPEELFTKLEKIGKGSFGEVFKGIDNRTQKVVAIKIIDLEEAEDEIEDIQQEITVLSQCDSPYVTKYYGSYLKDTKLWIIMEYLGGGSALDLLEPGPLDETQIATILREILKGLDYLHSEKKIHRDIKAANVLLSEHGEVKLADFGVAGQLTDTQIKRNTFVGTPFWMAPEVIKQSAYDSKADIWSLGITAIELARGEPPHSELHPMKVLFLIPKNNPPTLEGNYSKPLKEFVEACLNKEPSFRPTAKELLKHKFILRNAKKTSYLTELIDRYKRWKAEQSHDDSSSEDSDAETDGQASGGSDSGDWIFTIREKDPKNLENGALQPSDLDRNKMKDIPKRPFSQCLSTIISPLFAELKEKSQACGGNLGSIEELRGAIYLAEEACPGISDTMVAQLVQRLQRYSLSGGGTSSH

Measured: kinase-Nluc reporter destabilization hit call

Nc1nccc(Oc2ccc(NC(=O)c3c[nH]cc(-c4ccc(F)cc4)c3=O)cc2F)c1Cl (10 µM)
inactive: [1] 0 | [2] 0 | [3] 0 | [4] 0 | [5] 0 | [6] 0 | [7] 0 | [8] 0 | [9] 0 | [10] 0

C[C@H](NC(=O)[C@H]1NCC[C@@H]1O)c1ccc(-c2noc(CCC3CCCC3)n2)cc1 (10 µM)
inactive: [1] 0 | [2] 0 | [3] 0 | [4] 0 | [5] 0 | [6] 0 | [7] 0 | [8] 0 | [9] 0 | [10] 0

COc1ncccc1-c1cnn2ccc(N3CCN(C(=O)OC(C)C)CC3)nc12 (10 µM)
inactive: [1] 0 | [2] 0 | [3] 0 | [4] 0 | [5] 0 | [6] 0 | [7] 0 | [8] 0 | [9] 0 | [10] 0

Ordered by molecular weight (rising): 3 of the compounds above.
COc1ncccc1-c1cnn2ccc(N3CCN(C(=O)OC(C)C)CC3)nc12 (10 µM)
inactive: [1] 0 | [2] 0 | [3] 0 | [4] 0 | [5] 0 | [6] 0 | [7] 0 | [8] 0 | [9] 0 | [10] 0

C[C@H](NC(=O)[C@H]1NCC[C@@H]1O)c1ccc(-c2noc(CCC3CCCC3)n2)cc1 (10 µM)
inactive: [1] 0 | [2] 0 | [3] 0 | [4] 0 | [5] 0 | [6] 0 | [7] 0 | [8] 0 | [9] 0 | [10] 0

Nc1nccc(Oc2ccc(NC(=O)c3c[nH]cc(-c4ccc(F)cc4)c3=O)cc2F)c1Cl (10 µM)
inactive: [1] 0 | [2] 0 | [3] 0 | [4] 0 | [5] 0 | [6] 0 | [7] 0 | [8] 0 | [9] 0 | [10] 0

More structures:

CNc1nc(Nc2ccc(C(=O)N3CCOCC3)cc2OC)ncc1Cl (2.5 µM)
inactive: [1] 0 | [2] 0 | [3] 0 | [4] 0 | [5] 0 | [6] 0 | [7] 0 | [8] 0 | [9] 0 | [10] 0

CCCNC(=O)Nc1ccc(Oc2ncnc3cc(OC)c(OC)cc23)cc1Cl (2.5 µM)
inactive: [1] 0 | [2] 0 | [3] 0 | [4] 0 | [5] 0 | [6] 0 | [7] 0 | [8] 0 | [9] 0 | [10] 0

C[C@H](Nc1ncnc2[nH]cnc12)c1cc2ccc(F)cc2nc1-c1ccccn1 (10 µM)
inactive: [1] 0 | [2] 0 | [3] 0 | [4] 0 | [5] 0 | [6] 0 | [7] 0 | [8] 0 | [9] 0 | [10] 0

C=CC(=O)Nc1cc(Nc2nccc(-n3cc(CN(C)C)c(-c4ccccc4)n3)n2)c(OC)cc1N1CCOCC1 [Lazertinib] (10 µM)
inactive: [1] 0 | [2] 0 | [3] 0 | [4] 0 | [5] 0 | [6] 0 | [7] 0 | [8] 0 | [9] 0 | [10] 0

Nc1ncnc2c1c(-c1ccc(Oc3ccccc3)cc1)nn2C1CCN(CCOCCOCCOc2ccc3c(c2)CN(C2CCC(=O)NC2=O)C3=O)CC1 (stereo not given) (2.5 µM)
inactive: [1] 0 | [2] 0 | [3] 0 | [4] 0 | [5] 0 | [6] 0 | [7] 0 | [8] 0 | [9] 0 | [10] 0

C[C@@H]1CN(c2cc(-c3n[nH]c4ccc(OC5(C)CC5)cc34)ncn2)C[C@H](C)O1 (10 µM)
inactive: [1] 0 | [2] 0 | [3] 0 | [4] 0 | [5] 0 | [6] 0 | [7] 0 | [8] 0 | [9] 0 | [10] 0

Nc1cccc(-c2cc3c(Oc4cccc(O)c4)ncnc3[nH]2)c1 (10 µM)
inactive: [1] 0 | [2] 0 | [3] 0 | [4] 0 | [5] 0 | [6] 0 | [7] 0 | [8] 0 | [9] 0 | [10] 0

Cc1cc(-c2ccnc(Nc3cnn(C)c3)n2)ccc1CNC(=O)N1CC(OC(C)C)C1 (10 µM)
inactive: [1] 0 | [2] 0 | [3] 0 | [4] 0 | [5] 0 | [6] 0 | [7] 0 | [8] 0 | [9] 0 | [10] 0

Cc1nn(C)c2c1C(c1ccc(C(F)(F)F)cc1)C(C#N)=C(N)O2 (stereo not given) (10 µM)
inactive: [1] 0 | [2] 0 | [3] 0 | [4] 0 | [5] 0 | [6] 0 | [7] 0 | [8] 0 | [9] 0 | [10] 0

COc1ccc(-c2c(C)nn3c(NCCN4CCOCC4)cc(C)nc23)cc1OC (10 µM)
inactive: [1] 0 | [2] 0 | [3] 0 | [4] 0 | [5] 0 | [6] 0 | [7] 0 | [8] 0 | [9] 0 | [10] 0

Cn1cnc([N+](=O)[O-])c1C[N+](C)(C)C/C=C/C(=O)Nc1cc2c(Nc3ccc(Cl)c(Br)c3)ncnc2cn1 [Tarloxotinib (bromide)] (10 µM)
inactive: [1] 0 | [2] 0 | [3] 0 | [4] 0 | [5] 0 | [6] 0 | [7] 0 | [8] 0 | [9] 0 | [10] 0

CN(C)c1nc2c(Br)c(Br)c(Br)c(Br)c2[nH]1 (10 µM)
inactive: [1] 0 | [2] 0 | [3] 0 | [4] 0 | [5] 0 | [6] 0 | [7] 0 | [8] 0 | [9] 0 | [10] 0

Nc1ncnc2c1c(COc1cccc(Cl)c1)nn2C1CCOCC1 (10 µM)
inactive: [1] 0 | [2] 0 | [3] 0 | [4] 0 | [5] 0 | [6] 0 | [7] 0 | [8] 0 | [9] 0 | [10] 0

O=C(O)c1cc(=O)c2c(OCC(O)COc3cccc4oc(C(=O)O)cc(=O)c34)cccc2o1 [Cromolyn (sodium)] (10 µM)
inactive: [1] 0 | [2] 0 | [3] 0 | [4] 0 | [5] 0 | [6] 0 | [7] 0 | [8] 0 | [9] 0 | [10] 0

Cc1cccc2c3c(ccc12)C(=O)C1=C(OCC1C)C3=O (stereo not given) [Dihydroisotanshinone I] (2.5 µM)
inactive: [1] 0 | [2] 0 | [3] 0 | [4] 0 | [5] 0 | [6] 0 | [7] 0 | [8] 0 | [9] 0 | [10] 0

O=C1NC(=O)/C(=C/c2ccc3nccc(-c4ccncc4)c3c2)S1 (10 µM)
inactive: [1] 0 | [2] 0 | [3] 0 | [4] 0 | [5] 0 | [6] 0 | [7] 0 | [8] 0 | [9] 0 | [10] 0

O=C(O)c1cc(N(Cc2ccccc2O)Cc2ccccc2O)ccc1O [Lavendustin B] (10 µM)
inactive: [1] 0 | [2] 0 | [3] 0 | [4] 0 | [5] 0 | [6] 0 | [7] 0 | [8] 0 | [9] 0 | [10] 0

CCCCCCCCCCCCCCCCOP(=O)([O-])OCC[N+](C)(C)C [Miltefosine] (10 µM)
inactive: [1] 0 | [2] 0 | [3] 0 | [4] 0 | [5] 0 | [6] 0 | [7] 0 | [8] 0 | [9] 0 | [10] 0

Cc1cc(Nc2ncnc3ccc(-c4ccc(CNCCS(C)(=O)=O)o4)cc23)ccc1Oc1ccn2ncnc2c1 [ARRY-380 (analog )] (2.5 µM)
inactive: [1] 0 | [2] 0 | [3] 0 | [4] 0 | [5] 0 | [6] 0 | [7] 0 | [8] 0 | [9] 0 | [10] 0

O=C(Nc1nc(=O)n(Cc2ccc(Cl)cc2)s1)c1ccc(Cl)cc1 (10 µM)
inactive: [1] 0 | [2] 0 | [3] 0 | [4] 0 | [5] 0 | [6] 0 | [7] 0 | [8] 0 | [9] 0 | [10] 0

COc1cc(N2CCOCC2)ccc1NC(=O)c1csc(-c2cccnc2)n1 [IRAK inhibitor 6] (10 µM)
inactive: [1] 0 | [2] 0 | [3] 0 | [4] 0 | [5] 0 | [6] 0 | [7] 0 | [8] 0 | [9] 0 | [10] 0

O=c1cc(-c2cccc3c2Sc2ccccc2S3)oc(N2CCOCC2)c1 (10 µM)
inactive: [1] 0 | [2] 0 | [3] 0 | [4] 0 | [5] 0 | [6] 0 | [7] 0 | [8] 0 | [9] 0 | [10] 0

C=CC(=O)N1CCC[C@H](n2c(=O)n(-c3ccc(Oc4ccccc4)cc3)c3c(N)ncnc32)C1 [ONO-4059 (analog)] (10 µM)
inactive: [1] 0 | [2] 0 | [3] 0 | [4] 0 | [5] 0 | [6] 0 | [7] 0 | [8] 0 | [9] 0 | [10] 0

O=Nc1c2[nH]c3ccccc3nc-2c2ccccc12 [IQ-1S (free acid)] (2.5 µM)
inactive: [1] 0 | [2] 0 | [3] 0 | [4] 0 | [5] 0 | [6] 0 | [7] 0 | [8] 0 | [9] 0 | [10] 0

Cc1ccc(NC(=O)c2ccc(CN(CCN(C)C)C(=O)c3cccnc3)cc2)cc1Nc1nccc(-c2cccnc2)n1 [PDGFRα kinase inhibitor 1] (10 µM)
inactive: [1] 0 | [2] 0 | [3] 0 | [4] 0 | [5] 0 | [6] 0 | [7] 0 | [8] 0 | [9] 0 | [10] 0
